Patent US6376497B1, “Antifungal azole derivatives having a fluorinated vinyl group and process for preparing same” (Korea Research Institute of Chemical Technology, priority 1999, dated 2002)
At least one compound was matched to its structure with a doubt left.

Tested on: Cryptococcus neoformans IFM. 40092
Assay: In vitro antifungal activity, microbroth dilution MIC
Format: cell-based
Details: RPMI-1640, 35° C., 4 to 48 hours, no growth observed
Protocol: In vitro antifungal activities of the inventive antifungal compounds were evaluated using the test strains shown in Table VIII by the following microbroth dilution method which is a modified version of the procedure recommended by National Committee for Clinical Laboratory Standards(see National Committee for Clinical Laboratory Standards, 1992, Reference methods for broth dilution antifungal susceptibility testing of yeasts, Proposed standard M27-P, National Committee for clinical laboratory standards, Villanova, Pa; and National Committee for Clinical Laboratory Standards, 1995, Reference methods for broth dilution antifungal susceptibility testing of yeasts. Tentative standard M27-T, National Committee for clinical laboratory standards, Villanova, Pa).
Sabourad Dextrose Agar(Difco) was used as a culture medium, and RPMI-1640 broth(Sigma. Co. w/L-glutamine, wo/NaHCO3)(0.165 M MOPS, pH 7.0), as a dilution medium.
Each of the test strains were subcultured in Sabourad Dextrose Agar medium twice and a stain sample was taken from prominent colonies and suspended in sterile physiological saline solution in a cap tube. The turbidity of the suspension was adjusted to that of the Mcfarland 0.5 standard sample(approximately 10^6 CFU/ml). Then the suspension was diluted 500-fold with sterile RPMI-1640 liquid medium to 2×10^3 CFU/ml. […]

SMILES: CCc1ccc(C(=C(F)Oc2ccc(OCC3COC(Cn4ccnc4)(c4ccc(Cl)cc4Cl)O3)cc2)C(F)(F)F)cc1 (mixture of isomers) [Ex. 95]
- Minimal inhibitory concentration(MIC), Cry. neoformans IFM. 40092: 1.5& μg/ml
